These results are taken from article PMC12510319.

These are yes or no findings as the source states them, for the method shown. A result given as binding can be weak or reduced; the word gives no strength.

This assay addresses T1, ISA1-N628K, product of su1-Bn2, native protein of maize endosperm (maize (Zea mays L.) (endogenous in endosperm)) (UniProt O22637).
T1 sequence: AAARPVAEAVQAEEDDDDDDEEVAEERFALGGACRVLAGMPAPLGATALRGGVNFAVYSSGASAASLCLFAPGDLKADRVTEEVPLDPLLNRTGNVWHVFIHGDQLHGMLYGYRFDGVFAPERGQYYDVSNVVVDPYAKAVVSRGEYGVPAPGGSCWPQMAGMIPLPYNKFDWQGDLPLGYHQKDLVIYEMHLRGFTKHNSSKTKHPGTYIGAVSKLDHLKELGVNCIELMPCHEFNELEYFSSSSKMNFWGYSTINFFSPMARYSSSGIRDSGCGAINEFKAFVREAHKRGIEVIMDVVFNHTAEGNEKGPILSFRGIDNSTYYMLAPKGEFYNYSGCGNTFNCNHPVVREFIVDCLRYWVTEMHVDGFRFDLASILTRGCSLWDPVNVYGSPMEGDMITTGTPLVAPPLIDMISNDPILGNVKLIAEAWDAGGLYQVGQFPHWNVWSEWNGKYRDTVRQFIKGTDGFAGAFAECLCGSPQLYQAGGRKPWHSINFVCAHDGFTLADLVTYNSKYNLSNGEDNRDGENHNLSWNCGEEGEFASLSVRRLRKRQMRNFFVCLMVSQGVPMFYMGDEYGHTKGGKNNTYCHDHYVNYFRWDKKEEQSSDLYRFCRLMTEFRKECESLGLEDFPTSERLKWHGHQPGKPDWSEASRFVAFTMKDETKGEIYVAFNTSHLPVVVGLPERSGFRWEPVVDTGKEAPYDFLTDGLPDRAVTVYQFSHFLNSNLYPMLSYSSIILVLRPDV
The assay is described as follows: SEC; soluble extracts of 20 DAP endosperm on Superose 6 Increase 10/300 GL; 50 mM Tris-acetate pH 7.5, 150 mM NaCl, 1 mM DTT; 4 °C; fractions analysed by SDS-PAGE and immunoblot.

Take “ISOAMYLASE 2 (ISA2), native protein of maize endosperm”: the binding result was “binds”.
